Source: publication PMC6371491
Results are given in words; binding and its absence hold for the method and conditions named. For some of these results: In cells and extracts the contact can be indirect. Some entries that bind do so weakly or less than the wild type.

Protein sequences, listed by entry. Tags and fused reporters are not part of them.
UniProt P60842: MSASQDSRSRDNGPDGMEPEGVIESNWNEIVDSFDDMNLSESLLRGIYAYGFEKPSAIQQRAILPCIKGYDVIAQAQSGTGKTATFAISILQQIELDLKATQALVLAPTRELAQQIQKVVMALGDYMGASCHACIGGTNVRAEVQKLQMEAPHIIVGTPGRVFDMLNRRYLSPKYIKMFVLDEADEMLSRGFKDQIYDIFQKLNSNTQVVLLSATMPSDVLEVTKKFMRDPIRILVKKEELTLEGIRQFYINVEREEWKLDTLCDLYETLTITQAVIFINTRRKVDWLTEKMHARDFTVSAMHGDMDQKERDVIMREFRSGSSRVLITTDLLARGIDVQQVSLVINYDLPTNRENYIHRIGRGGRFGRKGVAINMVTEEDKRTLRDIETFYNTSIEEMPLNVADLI
UniProt P06730: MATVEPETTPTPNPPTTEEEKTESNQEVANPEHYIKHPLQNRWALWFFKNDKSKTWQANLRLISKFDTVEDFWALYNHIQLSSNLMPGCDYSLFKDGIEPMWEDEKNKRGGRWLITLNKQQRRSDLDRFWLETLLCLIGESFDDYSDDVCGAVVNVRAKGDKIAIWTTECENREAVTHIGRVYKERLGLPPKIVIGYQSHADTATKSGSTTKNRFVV

Experiments:
[1] = molecular target: T1, Phosphoglycerate dehydrogenase (PHGDH), overexpressed in AsPC-1-PHGDH cells (UniProt O43175); assay: co-IP; cell lysates (20 mM Tris pH 7.4, 0.5% NP40, 150 mM sodium chloride), antibody 1 ug/ml and protein A-Sepharose, 4 °C overnight, western blot; PANC-1-GFP, PANC-1-shPHGDH, AsPC-1-RFP and AsPC-1-PHGDH cells; baits PHGDH, eIF4A1 or eIF4E
T1 sequence: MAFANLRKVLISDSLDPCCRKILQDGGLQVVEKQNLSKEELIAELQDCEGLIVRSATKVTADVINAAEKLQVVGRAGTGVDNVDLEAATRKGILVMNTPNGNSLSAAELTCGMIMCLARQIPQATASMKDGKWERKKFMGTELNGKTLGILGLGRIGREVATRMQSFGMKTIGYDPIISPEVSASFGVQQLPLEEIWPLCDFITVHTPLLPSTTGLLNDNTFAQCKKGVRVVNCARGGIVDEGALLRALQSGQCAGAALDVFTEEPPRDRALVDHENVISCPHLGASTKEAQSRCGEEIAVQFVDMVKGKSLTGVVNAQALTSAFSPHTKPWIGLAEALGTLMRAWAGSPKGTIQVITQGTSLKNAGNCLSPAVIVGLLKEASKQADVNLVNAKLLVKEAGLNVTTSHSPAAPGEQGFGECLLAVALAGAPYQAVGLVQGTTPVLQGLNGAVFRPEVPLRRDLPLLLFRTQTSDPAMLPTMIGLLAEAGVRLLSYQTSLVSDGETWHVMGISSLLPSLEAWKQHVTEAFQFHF

[2] = molecular target: T2, Phosphoglycerate dehydrogenase (PHGDH), endogenous (human (endogenous in PANC-1 and AsPC-1)) (UniProt O43175); assay: as above
T2 sequence: T1 sequence

[3] = molecular target: T3, recombinant PHGDH protein (UniProt O43175); assay: pull-down; 2 ug recombinant PHGDH held by 2 ug anti-PHGDH antibody and protein G-Sepharose; recombinant eIF4A1, eIF4E or eIF4G1 added one by one; 20 mM Tris pH 7.4, 150 mM sodium chloride, 4 °C; western blot; both purified
T3 sequence: T1 sequence

Substance	binding [1]	binding [2]	binding [3]
eukaryotic translation initiation factor 4A1 (eIF4A1), endogenous (from UniProt P60842 1-406)	binds	binds	
recombinant eIF4A1 protein (from UniProt P60842 1-406)			binds
recombinant eIF4E protein (from UniProt P06730 1-217)			binds
